The experiment addresses Shot-YFP (Drosophila) (UniProt A1Z9J1). Kind of experiment: co-IP; immunoprecipitation of the YFP-tagged protein (Shot-YFP or Katanin 80-YFP) from Drosophila ovary extracts; input and bound fractions blotted for Patronin.

Sequences of proteins named here, by UniProt entry; tags and fusion partners are left off.
UniProt A1ZAU8: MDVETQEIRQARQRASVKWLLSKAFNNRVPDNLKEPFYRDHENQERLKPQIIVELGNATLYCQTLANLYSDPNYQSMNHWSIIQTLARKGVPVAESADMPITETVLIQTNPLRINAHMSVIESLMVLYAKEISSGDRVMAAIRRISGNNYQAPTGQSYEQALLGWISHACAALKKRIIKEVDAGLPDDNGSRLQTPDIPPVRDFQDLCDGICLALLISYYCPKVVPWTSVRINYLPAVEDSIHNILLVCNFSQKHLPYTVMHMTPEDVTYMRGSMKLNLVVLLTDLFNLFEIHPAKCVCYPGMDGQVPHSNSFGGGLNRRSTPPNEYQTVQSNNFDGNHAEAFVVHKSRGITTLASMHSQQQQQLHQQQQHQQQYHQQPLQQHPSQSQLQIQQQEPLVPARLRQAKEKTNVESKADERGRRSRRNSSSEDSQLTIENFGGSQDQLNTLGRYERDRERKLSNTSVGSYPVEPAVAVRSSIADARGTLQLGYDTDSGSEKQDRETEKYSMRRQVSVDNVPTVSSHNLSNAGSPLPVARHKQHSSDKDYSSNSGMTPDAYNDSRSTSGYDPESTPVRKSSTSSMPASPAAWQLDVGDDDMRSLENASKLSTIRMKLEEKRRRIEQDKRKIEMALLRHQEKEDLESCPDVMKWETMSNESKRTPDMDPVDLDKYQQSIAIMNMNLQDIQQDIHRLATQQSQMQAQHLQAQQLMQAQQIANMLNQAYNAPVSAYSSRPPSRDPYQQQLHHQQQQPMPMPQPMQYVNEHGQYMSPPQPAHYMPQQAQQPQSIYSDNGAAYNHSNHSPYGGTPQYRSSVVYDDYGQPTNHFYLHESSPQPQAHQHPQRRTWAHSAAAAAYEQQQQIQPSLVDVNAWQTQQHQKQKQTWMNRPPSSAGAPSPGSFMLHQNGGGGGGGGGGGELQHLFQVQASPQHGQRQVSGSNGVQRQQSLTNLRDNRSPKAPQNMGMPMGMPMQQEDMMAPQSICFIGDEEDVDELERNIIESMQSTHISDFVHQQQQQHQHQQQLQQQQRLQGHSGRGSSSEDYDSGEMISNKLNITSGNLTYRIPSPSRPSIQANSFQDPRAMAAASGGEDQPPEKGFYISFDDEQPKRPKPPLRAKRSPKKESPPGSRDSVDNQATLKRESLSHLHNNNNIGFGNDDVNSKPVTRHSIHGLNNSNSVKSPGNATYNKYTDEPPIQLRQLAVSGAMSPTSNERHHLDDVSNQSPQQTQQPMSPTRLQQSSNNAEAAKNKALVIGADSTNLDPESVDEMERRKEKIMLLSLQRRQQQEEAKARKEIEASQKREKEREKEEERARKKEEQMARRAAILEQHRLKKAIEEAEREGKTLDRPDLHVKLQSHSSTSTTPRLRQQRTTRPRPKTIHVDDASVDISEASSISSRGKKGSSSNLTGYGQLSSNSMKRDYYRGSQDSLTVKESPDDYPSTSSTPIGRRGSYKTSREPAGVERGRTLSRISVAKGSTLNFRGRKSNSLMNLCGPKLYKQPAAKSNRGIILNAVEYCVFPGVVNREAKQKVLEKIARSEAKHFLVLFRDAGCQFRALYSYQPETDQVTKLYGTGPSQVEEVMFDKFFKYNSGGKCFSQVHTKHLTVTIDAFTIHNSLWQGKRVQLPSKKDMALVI

These are yes or no findings as the source states them, for the method shown. Binding seen in cells or lysates may run through a third protein. Some entries that bind do so weakly or less than the wild type.

Regarding Patronin (from UniProt A1ZAU8 1-1630), the binding result was “binds”.
